In the supplement of paper PMC10849652 one finds log2 fold change data, which are given here for 23 targets.

Chains of the proteins cited; added tags and fusions are not shown. Lines headed by an entry give the natural chain unless they say otherwise; changes in a name come on top.
UniProt P12259: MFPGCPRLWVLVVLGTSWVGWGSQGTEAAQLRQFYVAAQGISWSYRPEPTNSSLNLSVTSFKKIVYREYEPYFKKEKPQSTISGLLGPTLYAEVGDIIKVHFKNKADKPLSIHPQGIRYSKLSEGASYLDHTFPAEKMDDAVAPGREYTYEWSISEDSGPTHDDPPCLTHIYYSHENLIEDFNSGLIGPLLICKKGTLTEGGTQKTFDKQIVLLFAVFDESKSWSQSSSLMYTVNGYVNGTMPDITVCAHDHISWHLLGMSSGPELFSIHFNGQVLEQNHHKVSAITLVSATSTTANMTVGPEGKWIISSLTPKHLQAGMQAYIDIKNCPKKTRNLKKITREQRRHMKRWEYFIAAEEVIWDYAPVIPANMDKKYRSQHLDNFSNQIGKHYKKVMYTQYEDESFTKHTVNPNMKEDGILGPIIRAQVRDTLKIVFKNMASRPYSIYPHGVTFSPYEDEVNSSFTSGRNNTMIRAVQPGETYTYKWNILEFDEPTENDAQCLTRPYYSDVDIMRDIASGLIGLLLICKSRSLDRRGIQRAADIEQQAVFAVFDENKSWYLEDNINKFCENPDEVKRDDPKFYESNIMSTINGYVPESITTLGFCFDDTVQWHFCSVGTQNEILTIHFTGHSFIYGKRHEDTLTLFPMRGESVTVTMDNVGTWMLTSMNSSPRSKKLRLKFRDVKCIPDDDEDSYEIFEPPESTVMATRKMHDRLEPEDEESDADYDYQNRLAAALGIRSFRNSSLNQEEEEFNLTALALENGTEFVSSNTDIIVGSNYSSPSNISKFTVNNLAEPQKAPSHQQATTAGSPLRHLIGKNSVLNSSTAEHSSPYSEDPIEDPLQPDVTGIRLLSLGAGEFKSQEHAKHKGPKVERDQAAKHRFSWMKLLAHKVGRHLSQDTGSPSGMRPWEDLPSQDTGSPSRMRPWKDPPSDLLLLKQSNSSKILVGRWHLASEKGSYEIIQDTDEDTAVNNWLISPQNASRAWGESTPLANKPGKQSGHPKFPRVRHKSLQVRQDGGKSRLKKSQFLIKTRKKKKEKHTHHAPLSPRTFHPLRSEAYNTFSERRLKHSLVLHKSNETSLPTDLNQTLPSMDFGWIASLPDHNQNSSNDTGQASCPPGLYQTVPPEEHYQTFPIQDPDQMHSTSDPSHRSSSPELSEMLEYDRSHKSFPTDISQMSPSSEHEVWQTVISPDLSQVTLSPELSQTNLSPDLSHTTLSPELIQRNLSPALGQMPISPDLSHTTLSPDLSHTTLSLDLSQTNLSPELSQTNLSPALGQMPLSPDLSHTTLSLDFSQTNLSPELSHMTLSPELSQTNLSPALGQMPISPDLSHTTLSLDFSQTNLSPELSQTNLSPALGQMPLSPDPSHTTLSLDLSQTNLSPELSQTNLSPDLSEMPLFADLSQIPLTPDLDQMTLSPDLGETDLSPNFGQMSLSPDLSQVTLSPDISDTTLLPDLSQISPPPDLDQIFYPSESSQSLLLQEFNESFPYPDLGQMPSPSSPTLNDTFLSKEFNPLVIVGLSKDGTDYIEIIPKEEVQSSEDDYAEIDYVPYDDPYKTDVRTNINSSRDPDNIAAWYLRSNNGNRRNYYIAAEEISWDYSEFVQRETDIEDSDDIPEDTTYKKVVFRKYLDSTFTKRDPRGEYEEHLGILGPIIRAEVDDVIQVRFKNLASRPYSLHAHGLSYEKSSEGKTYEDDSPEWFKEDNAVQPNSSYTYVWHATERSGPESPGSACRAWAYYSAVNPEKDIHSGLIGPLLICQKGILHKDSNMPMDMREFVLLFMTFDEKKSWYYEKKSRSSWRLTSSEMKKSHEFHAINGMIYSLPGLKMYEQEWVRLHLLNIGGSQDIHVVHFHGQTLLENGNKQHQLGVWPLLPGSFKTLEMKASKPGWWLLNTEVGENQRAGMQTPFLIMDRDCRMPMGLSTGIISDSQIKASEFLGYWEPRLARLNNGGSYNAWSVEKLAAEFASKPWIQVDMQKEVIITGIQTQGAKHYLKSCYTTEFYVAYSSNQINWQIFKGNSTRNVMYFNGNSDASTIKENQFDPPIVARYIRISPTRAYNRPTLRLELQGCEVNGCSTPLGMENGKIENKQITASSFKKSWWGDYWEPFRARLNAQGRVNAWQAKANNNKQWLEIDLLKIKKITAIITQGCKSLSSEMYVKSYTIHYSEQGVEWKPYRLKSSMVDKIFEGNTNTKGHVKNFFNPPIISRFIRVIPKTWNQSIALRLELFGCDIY
UniProt Q86UK5: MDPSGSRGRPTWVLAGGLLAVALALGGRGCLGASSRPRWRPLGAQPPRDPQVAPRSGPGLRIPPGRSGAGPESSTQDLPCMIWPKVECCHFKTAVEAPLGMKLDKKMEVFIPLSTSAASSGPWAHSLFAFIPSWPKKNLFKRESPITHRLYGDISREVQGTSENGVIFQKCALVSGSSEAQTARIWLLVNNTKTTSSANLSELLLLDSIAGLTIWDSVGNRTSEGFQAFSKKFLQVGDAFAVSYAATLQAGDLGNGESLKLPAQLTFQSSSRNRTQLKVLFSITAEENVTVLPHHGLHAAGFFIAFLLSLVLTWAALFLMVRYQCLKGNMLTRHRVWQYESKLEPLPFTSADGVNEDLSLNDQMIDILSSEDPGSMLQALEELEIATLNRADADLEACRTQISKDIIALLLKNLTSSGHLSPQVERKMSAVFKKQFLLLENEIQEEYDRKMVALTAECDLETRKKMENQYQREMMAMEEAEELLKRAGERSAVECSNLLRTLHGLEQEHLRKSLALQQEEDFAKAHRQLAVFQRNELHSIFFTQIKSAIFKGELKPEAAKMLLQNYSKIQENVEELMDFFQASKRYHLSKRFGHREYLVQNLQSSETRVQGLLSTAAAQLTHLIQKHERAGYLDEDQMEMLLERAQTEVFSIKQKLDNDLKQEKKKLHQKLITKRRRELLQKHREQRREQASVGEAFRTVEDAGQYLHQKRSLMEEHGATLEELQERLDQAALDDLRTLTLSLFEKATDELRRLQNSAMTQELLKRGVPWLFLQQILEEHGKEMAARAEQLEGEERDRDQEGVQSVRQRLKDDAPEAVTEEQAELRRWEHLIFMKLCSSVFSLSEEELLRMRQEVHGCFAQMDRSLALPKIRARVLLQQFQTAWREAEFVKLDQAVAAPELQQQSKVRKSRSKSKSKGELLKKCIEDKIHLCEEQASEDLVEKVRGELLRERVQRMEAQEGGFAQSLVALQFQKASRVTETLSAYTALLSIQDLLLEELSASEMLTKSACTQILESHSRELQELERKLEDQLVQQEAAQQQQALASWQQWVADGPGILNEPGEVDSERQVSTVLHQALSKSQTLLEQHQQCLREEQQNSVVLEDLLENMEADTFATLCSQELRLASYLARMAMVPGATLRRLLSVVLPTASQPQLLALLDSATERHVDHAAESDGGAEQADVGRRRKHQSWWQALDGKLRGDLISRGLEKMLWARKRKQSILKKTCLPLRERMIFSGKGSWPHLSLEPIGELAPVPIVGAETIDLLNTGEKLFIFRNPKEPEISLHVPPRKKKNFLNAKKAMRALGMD
UniProt Q96A26: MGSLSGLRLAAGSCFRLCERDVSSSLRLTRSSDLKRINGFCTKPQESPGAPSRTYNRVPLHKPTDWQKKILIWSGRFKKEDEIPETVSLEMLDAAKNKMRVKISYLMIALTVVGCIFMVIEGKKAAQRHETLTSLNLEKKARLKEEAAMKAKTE
UniProt P13804: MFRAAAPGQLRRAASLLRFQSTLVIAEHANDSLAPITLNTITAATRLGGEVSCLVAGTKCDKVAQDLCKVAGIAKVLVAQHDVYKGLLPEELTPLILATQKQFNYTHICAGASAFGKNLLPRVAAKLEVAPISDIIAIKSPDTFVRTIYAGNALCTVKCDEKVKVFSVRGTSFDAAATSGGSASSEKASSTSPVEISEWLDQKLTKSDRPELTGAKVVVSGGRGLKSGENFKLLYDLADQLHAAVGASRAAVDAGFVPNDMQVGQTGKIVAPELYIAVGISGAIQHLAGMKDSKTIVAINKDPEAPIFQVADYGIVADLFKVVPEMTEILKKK
UniProt Q5BKY9: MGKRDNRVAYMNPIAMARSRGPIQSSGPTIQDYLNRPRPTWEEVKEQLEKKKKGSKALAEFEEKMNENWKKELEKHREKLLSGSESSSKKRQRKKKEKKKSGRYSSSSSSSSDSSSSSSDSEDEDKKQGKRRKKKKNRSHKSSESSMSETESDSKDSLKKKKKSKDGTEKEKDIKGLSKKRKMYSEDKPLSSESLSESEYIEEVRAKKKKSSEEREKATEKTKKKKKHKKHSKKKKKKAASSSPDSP
UniProt Q6P2I3: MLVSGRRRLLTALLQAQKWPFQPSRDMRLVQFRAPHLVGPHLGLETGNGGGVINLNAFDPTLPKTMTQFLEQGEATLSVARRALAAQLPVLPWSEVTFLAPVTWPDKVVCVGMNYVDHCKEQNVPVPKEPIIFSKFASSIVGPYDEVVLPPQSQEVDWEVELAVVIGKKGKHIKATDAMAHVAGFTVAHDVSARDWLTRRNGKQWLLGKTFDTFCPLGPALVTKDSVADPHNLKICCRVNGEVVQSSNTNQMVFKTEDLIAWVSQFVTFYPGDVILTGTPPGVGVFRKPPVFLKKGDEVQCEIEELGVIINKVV
UniProt Q8IYI6: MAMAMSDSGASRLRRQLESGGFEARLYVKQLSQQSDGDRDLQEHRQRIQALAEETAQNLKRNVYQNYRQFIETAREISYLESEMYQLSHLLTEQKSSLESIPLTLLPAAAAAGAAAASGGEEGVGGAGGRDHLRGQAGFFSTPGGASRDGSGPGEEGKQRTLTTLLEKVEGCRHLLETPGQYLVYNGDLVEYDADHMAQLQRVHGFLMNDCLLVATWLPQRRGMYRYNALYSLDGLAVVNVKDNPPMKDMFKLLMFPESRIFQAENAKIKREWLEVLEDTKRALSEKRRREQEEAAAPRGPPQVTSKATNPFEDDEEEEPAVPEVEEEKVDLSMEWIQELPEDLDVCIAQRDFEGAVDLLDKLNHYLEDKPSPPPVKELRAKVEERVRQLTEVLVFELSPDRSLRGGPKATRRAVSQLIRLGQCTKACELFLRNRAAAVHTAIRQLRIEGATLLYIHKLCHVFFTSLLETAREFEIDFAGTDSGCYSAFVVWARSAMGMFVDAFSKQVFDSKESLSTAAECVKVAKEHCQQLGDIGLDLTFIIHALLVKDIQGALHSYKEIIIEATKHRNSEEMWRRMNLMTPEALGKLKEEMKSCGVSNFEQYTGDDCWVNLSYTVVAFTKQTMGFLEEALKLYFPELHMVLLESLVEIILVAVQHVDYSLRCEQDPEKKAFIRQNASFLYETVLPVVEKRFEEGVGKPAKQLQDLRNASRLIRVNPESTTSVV
UniProt Q9NZB2: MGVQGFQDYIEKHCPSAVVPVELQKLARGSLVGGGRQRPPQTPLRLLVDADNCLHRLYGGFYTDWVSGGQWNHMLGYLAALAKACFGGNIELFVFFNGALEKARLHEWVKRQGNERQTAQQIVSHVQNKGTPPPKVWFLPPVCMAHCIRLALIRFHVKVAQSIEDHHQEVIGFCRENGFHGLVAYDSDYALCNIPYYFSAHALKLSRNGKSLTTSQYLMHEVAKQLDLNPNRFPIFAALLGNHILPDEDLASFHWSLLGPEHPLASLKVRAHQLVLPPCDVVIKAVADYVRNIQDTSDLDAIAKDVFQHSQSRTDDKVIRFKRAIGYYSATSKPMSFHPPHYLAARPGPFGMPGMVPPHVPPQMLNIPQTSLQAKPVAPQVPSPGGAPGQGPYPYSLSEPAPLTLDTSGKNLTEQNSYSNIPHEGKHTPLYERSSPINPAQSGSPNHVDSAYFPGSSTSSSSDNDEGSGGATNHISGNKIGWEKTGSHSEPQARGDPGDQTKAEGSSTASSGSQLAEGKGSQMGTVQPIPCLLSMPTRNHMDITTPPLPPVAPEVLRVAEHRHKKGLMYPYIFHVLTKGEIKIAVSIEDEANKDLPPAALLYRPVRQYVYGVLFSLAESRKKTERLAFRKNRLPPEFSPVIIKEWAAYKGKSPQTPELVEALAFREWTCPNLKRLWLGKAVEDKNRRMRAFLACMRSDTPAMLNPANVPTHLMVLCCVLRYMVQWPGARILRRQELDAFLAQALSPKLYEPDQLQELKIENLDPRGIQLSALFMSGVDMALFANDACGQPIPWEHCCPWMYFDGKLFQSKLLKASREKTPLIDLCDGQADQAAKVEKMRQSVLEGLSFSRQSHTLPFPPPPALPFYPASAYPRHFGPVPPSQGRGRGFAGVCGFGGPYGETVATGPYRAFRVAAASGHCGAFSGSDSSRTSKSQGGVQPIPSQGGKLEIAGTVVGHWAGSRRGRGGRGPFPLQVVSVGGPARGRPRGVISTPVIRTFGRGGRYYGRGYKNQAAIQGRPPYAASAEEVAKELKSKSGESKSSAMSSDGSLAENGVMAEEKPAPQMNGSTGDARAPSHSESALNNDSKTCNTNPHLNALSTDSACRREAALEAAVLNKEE

The other results are listed elsewhere or left out.

Compound in this assay: C1=CC(=CC=C1C2=NC3=C(N2)C=C(C=C3)C(=O)N)OC4=CC=C(C=C4)Cl
In words: log2 fold change, soluble protein after heating vs DMSO (PISA); higher = thermal stabilisation; K562 cells, 10 uM, 30 min; active = over 0.2 and 3.5 SD of the protein, either way, in both replicates (recomputed). In outline: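 For each measurement, 10 μM compound was applied for 30 min to K562 cells at 2×10^6 cells/mL. Aliquots were heated for 3 min across 48°C-58°C, pooled, and extracted in PBS with 0.5% NP-40 at 4°C; the supernatant after 21,000xg for 90 min was soluble protein. This was quantified by TMTpro 16plex LC-MS/MS with channel sums equalised, and thermal stability was reported relative to control samples from duplicates, on a log2 fold-change scale.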
In the case of EPB41L2 (UniProt O43491), the log2 fold change is inactive: 0.03.

In the case of EPHX1 (UniProt P07099), the log2 fold change was inactive: 0.038.

For F5 (UniProt P12259), the log2 fold change was inactive: 0.061.

In the case of EXOSC9 isoform 2 (UniProt Q06265), the log2 fold change is inactive: 0.022.

With EVC2 (UniProt Q86UK5), the log2 fold change is inactive: -0.035.

For FAM162A (UniProt Q96A26), the log2 fold change is inactive: 0.034.

Consider FAH isoform 2 (UniProt P16930), for which the log2 fold change is inactive: -0.07.

In the case of ETFA (UniProt P13804), the log2 fold change was inactive: 0.004.

Consider FAM133B (UniProt Q5BKY9), for which the log2 fold change is inactive: 0.051.

Consider FAHD2B (UniProt Q6P2I3), for which the log2 fold change was inactive: 0.061.

Regarding FAF1 (UniProt Q9UNN5), the log2 fold change is inactive: -0.008.

Turning to FAM122A (UniProt Q96E09), the log2 fold change is inactive: -0.025.

For EXOSC1 (UniProt Q9Y3B2), the log2 fold change was inactive: -0.019.

As to EXOC4 (UniProt Q96A65), the log2 fold change was inactive: -0.071.

Take ERLIN2 (UniProt O94905): the log2 fold change was inactive: -0.014.

On to ETNK1 (UniProt Q9HBU6), for which the log2 fold change is inactive: -0.001.

For ERGIC3 isoform 3 (UniProt Q9Y282), the log2 fold change is inactive: 0.011.

On to EXOC8 (UniProt Q8IYI6), for which the log2 fold change is inactive: -0.056.

As to EXOC5 (UniProt O00471), the log2 fold change was inactive: -0.044.

On to ERMAP (UniProt Q96PL5), for which the log2 fold change is inactive: -0.041.

As to FAM120A isoform 6 (UniProt Q9NZB2), the log2 fold change was inactive: 0.069.

Turning to ETF1 (UniProt P62495), the log2 fold change was inactive: -0.025.

With ESPL1 (UniProt Q14674), the log2 fold change was inactive: 0.108.
